No constants are given. Whether binding was seen depends on the method and setting. In cells and extracts the contact can be indirect. Where a sequence is shown, tags or fusion partners need not be part of it.
Target: T1, VE-1 tagged with the FLAG epitope (ve-1^FLAG allele) (N. crassa) (UniProt Q1K5S5)
T1 sequence: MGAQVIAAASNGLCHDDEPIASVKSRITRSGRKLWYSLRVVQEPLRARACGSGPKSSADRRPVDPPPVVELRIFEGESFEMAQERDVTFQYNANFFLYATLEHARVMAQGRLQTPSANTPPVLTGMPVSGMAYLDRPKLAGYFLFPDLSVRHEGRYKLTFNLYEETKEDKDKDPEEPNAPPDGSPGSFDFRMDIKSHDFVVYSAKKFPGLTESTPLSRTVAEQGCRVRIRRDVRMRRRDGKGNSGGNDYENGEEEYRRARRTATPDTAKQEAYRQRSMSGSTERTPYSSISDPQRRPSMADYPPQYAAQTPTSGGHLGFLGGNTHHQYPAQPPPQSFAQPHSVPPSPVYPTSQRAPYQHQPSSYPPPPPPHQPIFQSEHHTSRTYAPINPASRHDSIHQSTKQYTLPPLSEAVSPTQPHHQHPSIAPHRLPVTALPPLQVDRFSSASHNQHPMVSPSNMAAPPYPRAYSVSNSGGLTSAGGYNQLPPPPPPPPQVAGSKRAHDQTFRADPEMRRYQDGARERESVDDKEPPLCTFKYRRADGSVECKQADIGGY
Assay: co-IP; VE-1 FLAG precipitated with M2-FLAG agarose beads from extracts of formaldehyde-fixed vegetative mycelia of the ve-1^FLAG strain (48 h, 30 °C; light, dark or dark then 30 min light); IPB buffer (50 mM Tris-HCl pH 7.5, 150 mM NaCl, 1.5 mM MgCl2, 0.1% NP-40), 3 h at 4 °C; western blot for WC-1

The chains behind the UniProt entries cited, without tags or fusion partners.
UniProt Q01371: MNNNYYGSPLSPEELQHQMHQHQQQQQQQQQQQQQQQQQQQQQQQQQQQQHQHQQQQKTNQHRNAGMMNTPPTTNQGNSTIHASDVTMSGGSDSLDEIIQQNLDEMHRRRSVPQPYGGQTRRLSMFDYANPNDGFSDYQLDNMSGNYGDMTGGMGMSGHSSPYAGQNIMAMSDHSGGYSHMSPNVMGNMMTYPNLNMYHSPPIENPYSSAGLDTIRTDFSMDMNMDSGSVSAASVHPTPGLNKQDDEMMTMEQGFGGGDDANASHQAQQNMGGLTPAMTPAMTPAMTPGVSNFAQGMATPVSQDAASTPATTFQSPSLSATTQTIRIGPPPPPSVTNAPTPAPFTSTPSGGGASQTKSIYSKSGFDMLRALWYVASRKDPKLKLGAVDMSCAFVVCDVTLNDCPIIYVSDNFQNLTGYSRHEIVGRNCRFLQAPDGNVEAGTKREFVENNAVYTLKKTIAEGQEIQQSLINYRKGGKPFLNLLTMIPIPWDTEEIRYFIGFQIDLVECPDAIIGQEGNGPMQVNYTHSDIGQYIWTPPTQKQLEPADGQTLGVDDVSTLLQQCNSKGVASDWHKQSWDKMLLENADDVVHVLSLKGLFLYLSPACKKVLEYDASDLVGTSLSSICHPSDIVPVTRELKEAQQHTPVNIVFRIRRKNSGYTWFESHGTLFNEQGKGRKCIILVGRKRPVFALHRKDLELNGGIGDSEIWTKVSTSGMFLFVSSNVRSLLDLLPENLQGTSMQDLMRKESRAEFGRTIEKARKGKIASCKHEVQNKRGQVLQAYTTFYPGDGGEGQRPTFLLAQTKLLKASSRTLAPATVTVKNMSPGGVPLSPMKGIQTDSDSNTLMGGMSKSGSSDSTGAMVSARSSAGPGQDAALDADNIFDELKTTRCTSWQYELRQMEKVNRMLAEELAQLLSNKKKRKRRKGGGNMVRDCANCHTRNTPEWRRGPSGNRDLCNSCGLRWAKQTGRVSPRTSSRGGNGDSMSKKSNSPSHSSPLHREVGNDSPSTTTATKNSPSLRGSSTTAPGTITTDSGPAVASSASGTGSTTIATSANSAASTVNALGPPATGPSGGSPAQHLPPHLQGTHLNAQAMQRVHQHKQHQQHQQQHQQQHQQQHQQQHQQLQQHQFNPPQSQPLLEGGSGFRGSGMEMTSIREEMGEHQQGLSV

WC-1, blue-light photoreceptor and Zn-finger transcription factor (from UniProt Q01371 1-1167)
binding: no binding
